These results are taken from publication PMC10413357.

Protein sequences, listed by entry. Tags and fused reporters are not part of them.
UniProt P09874: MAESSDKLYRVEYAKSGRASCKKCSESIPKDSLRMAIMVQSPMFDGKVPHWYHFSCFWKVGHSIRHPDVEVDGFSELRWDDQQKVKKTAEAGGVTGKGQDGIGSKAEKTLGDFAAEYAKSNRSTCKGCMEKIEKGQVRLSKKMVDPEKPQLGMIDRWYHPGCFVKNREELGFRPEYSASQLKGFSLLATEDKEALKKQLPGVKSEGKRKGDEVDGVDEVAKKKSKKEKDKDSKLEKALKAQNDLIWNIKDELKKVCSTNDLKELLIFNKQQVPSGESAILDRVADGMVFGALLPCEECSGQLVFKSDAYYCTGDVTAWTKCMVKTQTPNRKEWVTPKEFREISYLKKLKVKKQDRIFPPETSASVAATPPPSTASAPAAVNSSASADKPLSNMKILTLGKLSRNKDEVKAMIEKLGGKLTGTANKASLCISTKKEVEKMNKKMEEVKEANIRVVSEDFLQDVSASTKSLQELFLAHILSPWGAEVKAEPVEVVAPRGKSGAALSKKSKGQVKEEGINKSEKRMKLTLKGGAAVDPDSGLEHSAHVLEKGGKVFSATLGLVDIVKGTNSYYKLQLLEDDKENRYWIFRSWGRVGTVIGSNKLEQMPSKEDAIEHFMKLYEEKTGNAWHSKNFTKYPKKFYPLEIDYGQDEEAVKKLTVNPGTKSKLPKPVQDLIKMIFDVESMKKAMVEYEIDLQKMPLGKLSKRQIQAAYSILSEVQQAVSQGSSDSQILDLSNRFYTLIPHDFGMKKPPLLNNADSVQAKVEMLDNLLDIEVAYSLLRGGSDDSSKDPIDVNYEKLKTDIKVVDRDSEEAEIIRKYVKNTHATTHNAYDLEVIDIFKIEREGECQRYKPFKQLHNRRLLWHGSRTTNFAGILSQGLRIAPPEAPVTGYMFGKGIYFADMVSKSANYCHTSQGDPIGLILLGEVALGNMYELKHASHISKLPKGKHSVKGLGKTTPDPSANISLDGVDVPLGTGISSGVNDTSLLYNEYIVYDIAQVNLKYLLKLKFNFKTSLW

For the assay, the target named is S-protein-FLAG–Streptavidin-binding peptide (SFB)-tagged RNF168 (UniProt Q8IYW5). The assay is described as follows: affinity purification with mass spectrometry; tandem affinity purification (Streptavidin Sepharose, biotin elution, then S-protein beads) of SFB-RNF168 from the Turbonuclease-digested chromatin fraction of transfected HEK293T cells; NETN buffer (150 mM NaCl, 0.5 mM EDTA, 20 mM Tris-HCl pH 8.0, 0.5% NP-40), 4 °C.

No constants are given. Whether binding was seen depends on the method and setting. In cells and extracts the contact can be indirect. These calls come from enrichment with a bait or labelling near it, and not all partners need be listed.

Turning to PARP1 (from UniProt P09874 1-1014), the binding result is given as “binds”.
